We go through seven molecules from publication PMC4695046.

Chains of the proteins cited; added tags and fusions are not shown. Lines headed by an entry give the natural chain unless they say otherwise; changes in a name come on top.
UniProt P07339: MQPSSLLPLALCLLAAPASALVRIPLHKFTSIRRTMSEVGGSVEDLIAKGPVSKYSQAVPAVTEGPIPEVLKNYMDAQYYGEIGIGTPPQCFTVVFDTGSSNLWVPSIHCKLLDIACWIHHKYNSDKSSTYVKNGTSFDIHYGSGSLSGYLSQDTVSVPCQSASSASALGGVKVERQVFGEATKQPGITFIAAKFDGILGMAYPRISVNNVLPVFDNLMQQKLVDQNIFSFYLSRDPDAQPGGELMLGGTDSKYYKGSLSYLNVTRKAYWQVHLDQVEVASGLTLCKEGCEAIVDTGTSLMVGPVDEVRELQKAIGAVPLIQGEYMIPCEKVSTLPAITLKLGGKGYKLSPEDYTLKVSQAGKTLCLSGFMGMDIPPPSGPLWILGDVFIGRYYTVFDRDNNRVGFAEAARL
UniProt P46379: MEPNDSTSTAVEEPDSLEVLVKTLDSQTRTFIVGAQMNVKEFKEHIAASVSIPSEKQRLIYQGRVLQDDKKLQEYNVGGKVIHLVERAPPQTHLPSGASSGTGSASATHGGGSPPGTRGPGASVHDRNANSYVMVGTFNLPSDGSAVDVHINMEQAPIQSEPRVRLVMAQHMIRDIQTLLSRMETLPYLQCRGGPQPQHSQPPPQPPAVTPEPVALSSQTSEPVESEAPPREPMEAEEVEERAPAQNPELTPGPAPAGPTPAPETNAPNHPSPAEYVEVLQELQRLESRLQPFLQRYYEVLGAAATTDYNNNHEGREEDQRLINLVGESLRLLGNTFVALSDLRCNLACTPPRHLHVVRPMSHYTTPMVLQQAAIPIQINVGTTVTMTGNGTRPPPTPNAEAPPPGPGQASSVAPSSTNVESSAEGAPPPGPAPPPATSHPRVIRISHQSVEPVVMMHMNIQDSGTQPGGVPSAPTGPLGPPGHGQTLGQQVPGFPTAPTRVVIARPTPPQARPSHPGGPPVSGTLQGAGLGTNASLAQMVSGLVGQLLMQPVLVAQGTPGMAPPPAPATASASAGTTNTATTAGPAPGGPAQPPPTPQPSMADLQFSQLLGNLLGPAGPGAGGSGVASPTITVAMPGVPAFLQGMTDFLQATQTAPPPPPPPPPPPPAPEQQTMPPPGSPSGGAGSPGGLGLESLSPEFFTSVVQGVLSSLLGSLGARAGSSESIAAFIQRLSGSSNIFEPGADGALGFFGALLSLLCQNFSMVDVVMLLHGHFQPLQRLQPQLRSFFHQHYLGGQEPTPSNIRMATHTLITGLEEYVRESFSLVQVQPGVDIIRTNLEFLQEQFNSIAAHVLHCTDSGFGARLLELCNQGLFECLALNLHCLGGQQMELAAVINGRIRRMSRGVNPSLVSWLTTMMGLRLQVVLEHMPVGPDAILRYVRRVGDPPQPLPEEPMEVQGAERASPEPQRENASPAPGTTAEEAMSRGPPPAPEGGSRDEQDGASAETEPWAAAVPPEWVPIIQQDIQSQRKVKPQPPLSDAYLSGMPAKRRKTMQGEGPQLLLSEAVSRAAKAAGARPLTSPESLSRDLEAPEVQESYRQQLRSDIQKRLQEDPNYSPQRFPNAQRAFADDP

B1: full-length TRPS1, radio-labeled, synthesized in a reticulocyte lysate system (protein, UniProt Q9UHF7 1-1281)
chain: MVRKKNPPLRNVASEGEGQILEPIGTESKVSGKNKEFSADQMSENTDQSDAAELNHKEEHSLHVQDPSSSSKKDLKSAVLSEKAGFNYESPSKGGNFPSFPHDEVTDRNMLAFSSPAAGGVCEPLKSPQRAEADDPQDMACTPSGDSLETKEDQKMSPKATEETGQAQSGQANCQGLSPVSVASKNPQVPSDGGVRLNKSKTDLLVNDNPDPAPLSPELQDFKCNICGYGYYGNDPTDLIKHFRKYHLGLHNRTRQDAELDSKILALHNMVQFSHSKDFQKVNRSVFSGVLQDINSSRPVLLNGTYDVQVTSGGTFIGIGRKTPDCQGNTKYFRCKFCNFTYMGNSSTELEQHFLQTHPNKIKASLPSSEVAKPSEKNSNKSIPALQSSDSGDLGKWQDKITVKAGDDTPVGYSVPIKPLDSSRQNGTEATSYYWCKFCSFSCESSSSLKLLEHYGKQHGAVQSGGLNPELNDKLSRGSVINQNDLAKSSEGETMTKTDKSSSGAKKKDFSSKGAEDNMVTSYNCQFCDFRYSKSHGPDVIVVGPLLRHYQQLHNIHKCTIKHCPFCPRGLCSPEKHLGEITYPFACRKSNCSHCALLLLHLSPGAAGSSRVKHQCHQCSFTTPDVDVLLFHYESVHESQASDVKQEANHLQGSDGQQSVKESKEHSCTKCDFITQVEEEISRHYRRAHSCYKCRQCSFTAADTQSLLEHFNTVHCQEQDITTANGEEDGHAISTIKEEPKIDFRVYNLLTPDSKMGEPVSESVVKREKLEEKDGLKEKVWTESSSDDLRNVTWRGADILRGSPSYTQASLGLLTPVSGTQEQTKTLRDSPNVEAAHLARPIYGLAVETKGFLQGAPAGGEKSGALPQQYPASGENKSKDESQSLLRRRRGSGVFCANCLTTKTSLWRKNANGGYVCNACGLYQKLHSTPRPLNIIKQNNGEQIIRRRTRKRLNPEALQAEQLNKQQRGSNEEQVNGSPLERRSEDHLTESHQREIPLPSLSKYEAQGSLTKSHSAQQPVLVSQTLDIHKRMQPLHIQIKSPQESTGDPGNSSSVSEGKGSSERGSPIEKYMRPAKHPNYSPPGSPIEKYQYPLFGLPFVHNDFQSEADWLRFWSKYKLSVPGNPHYLSHVPGLPNPCQNYVPYPTFNLPPHFSAVGSDNDIPLDLAIKHSRPGPTANGASKEKTKAPPNVKNEGPLNVVKTEKVDRSTQDELSTKCVHCGIVFLDEVMYALHMSCHGDSGPFQCSICQHLCTDKYDFTTHIQRGLHRNNAQVEKNGKPKE
modifications: [35S]methionine-labeled
B2: TRPS1 fragment F6 (635–1184) (domain or fragment, UniProt Q9UHF7 635-1184)
chain: SVHESQASDVKQEANHLQGSDGQQSVKESKEHSCTKCDFITQVEEEISRHYRRAHSCYKCRQCSFTAADTQSLLEHFNTVHCQEQDITTANGEEDGHAISTIKEEPKIDFRVYNLLTPDSKMGEPVSESVVKREKLEEKDGLKEKVWTESSSDDLRNVTWRGADILRGSPSYTQASLGLLTPVSGTQEQTKTLRDSPNVEAAHLARPIYGLAVETKGFLQGAPAGGEKSGALPQQYPASGENKSKDESQSLLRRRRGSGVFCANCLTTKTSLWRKNANGGYVCNACGLYQKLHSTPRPLNIIKQNNGEQIIRRRTRKRLNPEALQAEQLNKQQRGSNEEQVNGSPLERRSEDHLTESHQREIPLPSLSKYEAQGSLTKSHSAQQPVLVSQTLDIHKRMQPLHIQIKSPQESTGDPGNSSSVSEGKGSSERGSPIEKYMRPAKHPNYSPPGSPIEKYQYPLFGLPFVHNDFQSEADWLRFWSKYKLSVPGNPHYLSHVPGLPNPCQNYVPYPTFNLPPHFSAVGSDNDIPLDLAIKHSRPGPTANGASKEK
modifications: [35S]methionine-labeled
B3: TRPS1 fragment F5 (aa 635–1281) (domain or fragment, UniProt Q9UHF7 635-1281)
chain: SVHESQASDVKQEANHLQGSDGQQSVKESKEHSCTKCDFITQVEEEISRHYRRAHSCYKCRQCSFTAADTQSLLEHFNTVHCQEQDITTANGEEDGHAISTIKEEPKIDFRVYNLLTPDSKMGEPVSESVVKREKLEEKDGLKEKVWTESSSDDLRNVTWRGADILRGSPSYTQASLGLLTPVSGTQEQTKTLRDSPNVEAAHLARPIYGLAVETKGFLQGAPAGGEKSGALPQQYPASGENKSKDESQSLLRRRRGSGVFCANCLTTKTSLWRKNANGGYVCNACGLYQKLHSTPRPLNIIKQNNGEQIIRRRTRKRLNPEALQAEQLNKQQRGSNEEQVNGSPLERRSEDHLTESHQREIPLPSLSKYEAQGSLTKSHSAQQPVLVSQTLDIHKRMQPLHIQIKSPQESTGDPGNSSSVSEGKGSSERGSPIEKYMRPAKHPNYSPPGSPIEKYQYPLFGLPFVHNDFQSEADWLRFWSKYKLSVPGNPHYLSHVPGLPNPCQNYVPYPTFNLPPHFSAVGSDNDIPLDLAIKHSRPGPTANGASKEKTKAPPNVKNEGPLNVVKTEKVDRSTQDELSTKCVHCGIVFLDEVMYALHMSCHGDSGPFQCSICQHLCTDKYDFTTHIQRGLHRNNAQVEKNGKPKE
modifications: [35S]methionine-labeled
B4: TRPS1 fragment F1 (aa 1185–1281) (domain or fragment, UniProt Q9UHF7 1185-1281)
chain: TKAPPNVKNEGPLNVVKTEKVDRSTQDELSTKCVHCGIVFLDEVMYALHMSCHGDSGPFQCSICQHLCTDKYDFTTHIQRGLHRNNAQVEKNGKPKE
modifications: [35S]methionine-labeled
B5: TRPS1 fragment F9 (aa 635–984) (domain or fragment, UniProt Q9UHF7 635-984)
chain: SVHESQASDVKQEANHLQGSDGQQSVKESKEHSCTKCDFITQVEEEISRHYRRAHSCYKCRQCSFTAADTQSLLEHFNTVHCQEQDITTANGEEDGHAISTIKEEPKIDFRVYNLLTPDSKMGEPVSESVVKREKLEEKDGLKEKVWTESSSDDLRNVTWRGADILRGSPSYTQASLGLLTPVSGTQEQTKTLRDSPNVEAAHLARPIYGLAVETKGFLQGAPAGGEKSGALPQQYPASGENKSKDESQSLLRRRRGSGVFCANCLTTKTSLWRKNANGGYVCNACGLYQKLHSTPRPLNIIKQNNGEQIIRRRTRKRLNPEALQAEQLNKQQRGSNEEQVNGSPLERRS
modifications: [35S]methionine-labeled
B6: TRPS1 fragment F10 (aa 635–819) (domain or fragment, UniProt Q9UHF7 635-819)
chain: SVHESQASDVKQEANHLQGSDGQQSVKESKEHSCTKCDFITQVEEEISRHYRRAHSCYKCRQCSFTAADTQSLLEHFNTVHCQEQDITTANGEEDGHAISTIKEEPKIDFRVYNLLTPDSKMGEPVSESVVKREKLEEKDGLKEKVWTESSSDDLRNVTWRGADILRGSPSYTQASLGLLTPVSG
modifications: [35S]methionine-labeled

Results are given in words; binding and its absence hold for the method and conditions named. In cells and extracts the contact can be indirect. Binding calls can cover weak binding; strength is not graded here.

In the first experiment the target is GST-48K Cath-D (human). The experiment can be described thus: pull-down; GST-Cath-D fusion proteins immobilised on glutathione-Sepharose beads, incubated overnight at 4°C with [35S]methionine-labeled in vitro translated proteins in PDB buffer (20 mM HEPES-KOH pH 7.9, 10% glycerol, 100 mM KCl, 5 mM MgCl2, 0.2 mM EDTA, 1 mM DTT) with 15 mg/ml BSA and 0.1% Tween-20; four washes; autoradiography; only the target purified.
For B1, the binding result is “binds”.

For B2, the binding result was “binds”.

Regarding B3, the binding entry is recorded as “binds”.

Take B4: the binding entry is recorded as “no binding”.

As for B5, the binding result was “no binding”.

B6: the binding entry is on record as “no binding”.

A further experiment has as its target GST-52K Cath-D (human) (UniProt P07339). The description is as above.
In the case of “full-length BAT3, radio-labeled (from UniProt P46379 1-1132)”, the binding result is “binds”.
